Measurements reported in article PMC6465247.
No constants are given. Whether binding was seen depends on the method and setting. In cells and extracts the contact can be indirect. Some entries that bind do so weakly or less than the wild type. Where a sequence is shown, tags or fusion partners need not be part of it.

Key:
Experiment in all cases: split reporter; BiFC and ratiometric BiFC (pBiFC-2in1-NN, YFP against RFP as reference) in tobacco leaves after Agrobacterium infiltration; imaged 2 days after infiltration
[1] = target: T1, PDS5D, BiFC fusion (Arabidopsis thaliana) (UniProt A8MRD9)
T1 sequence: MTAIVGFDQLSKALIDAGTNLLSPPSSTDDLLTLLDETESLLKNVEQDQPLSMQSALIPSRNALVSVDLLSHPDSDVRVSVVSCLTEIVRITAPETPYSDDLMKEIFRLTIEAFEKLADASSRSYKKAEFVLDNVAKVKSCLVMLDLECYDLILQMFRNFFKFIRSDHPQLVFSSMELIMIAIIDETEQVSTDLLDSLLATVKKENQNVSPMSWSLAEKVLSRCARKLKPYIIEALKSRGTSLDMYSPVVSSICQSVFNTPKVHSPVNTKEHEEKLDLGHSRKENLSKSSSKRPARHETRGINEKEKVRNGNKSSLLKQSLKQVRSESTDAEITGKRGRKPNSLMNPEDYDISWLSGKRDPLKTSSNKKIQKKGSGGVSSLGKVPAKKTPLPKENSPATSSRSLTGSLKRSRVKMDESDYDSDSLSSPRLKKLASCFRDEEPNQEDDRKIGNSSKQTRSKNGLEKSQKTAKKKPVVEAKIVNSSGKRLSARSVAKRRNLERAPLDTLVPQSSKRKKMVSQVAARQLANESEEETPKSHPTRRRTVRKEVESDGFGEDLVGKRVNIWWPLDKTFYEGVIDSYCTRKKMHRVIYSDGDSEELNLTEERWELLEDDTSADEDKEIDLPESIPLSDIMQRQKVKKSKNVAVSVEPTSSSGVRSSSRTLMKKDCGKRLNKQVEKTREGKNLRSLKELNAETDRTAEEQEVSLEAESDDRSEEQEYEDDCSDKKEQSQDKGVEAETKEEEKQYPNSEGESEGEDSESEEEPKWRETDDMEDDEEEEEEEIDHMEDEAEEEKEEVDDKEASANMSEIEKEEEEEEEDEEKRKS

[2] = target: T2, PDS5C, BiFC fusion (Arabidopsis thaliana) (UniProt Q8GUP3)
T2 sequence: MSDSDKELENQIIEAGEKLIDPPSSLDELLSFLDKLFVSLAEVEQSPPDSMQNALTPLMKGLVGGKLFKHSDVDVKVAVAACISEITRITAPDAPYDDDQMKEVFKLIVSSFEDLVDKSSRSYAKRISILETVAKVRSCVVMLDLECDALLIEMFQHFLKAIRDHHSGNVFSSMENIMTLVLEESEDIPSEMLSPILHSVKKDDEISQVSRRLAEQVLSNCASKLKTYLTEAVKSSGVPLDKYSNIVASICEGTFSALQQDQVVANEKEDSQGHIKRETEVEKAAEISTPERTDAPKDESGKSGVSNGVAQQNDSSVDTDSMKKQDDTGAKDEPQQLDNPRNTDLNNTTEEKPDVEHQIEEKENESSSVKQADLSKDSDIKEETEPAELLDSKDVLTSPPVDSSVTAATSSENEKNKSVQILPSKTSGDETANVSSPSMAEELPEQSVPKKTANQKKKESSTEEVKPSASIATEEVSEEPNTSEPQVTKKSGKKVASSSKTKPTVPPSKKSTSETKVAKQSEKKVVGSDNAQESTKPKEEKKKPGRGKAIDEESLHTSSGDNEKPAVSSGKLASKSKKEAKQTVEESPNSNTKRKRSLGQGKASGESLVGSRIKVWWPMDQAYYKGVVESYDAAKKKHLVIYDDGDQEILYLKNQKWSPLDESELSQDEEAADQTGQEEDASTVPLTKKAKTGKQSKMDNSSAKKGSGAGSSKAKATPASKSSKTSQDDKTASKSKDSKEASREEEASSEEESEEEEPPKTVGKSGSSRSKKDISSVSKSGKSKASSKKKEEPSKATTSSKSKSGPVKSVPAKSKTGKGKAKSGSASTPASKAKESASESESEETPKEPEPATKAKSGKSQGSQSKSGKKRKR

[3] = target: T3, PDS5E, BiFC fusion (Arabidopsis thaliana) (UniProt Q9S9P0)
T3 sequence: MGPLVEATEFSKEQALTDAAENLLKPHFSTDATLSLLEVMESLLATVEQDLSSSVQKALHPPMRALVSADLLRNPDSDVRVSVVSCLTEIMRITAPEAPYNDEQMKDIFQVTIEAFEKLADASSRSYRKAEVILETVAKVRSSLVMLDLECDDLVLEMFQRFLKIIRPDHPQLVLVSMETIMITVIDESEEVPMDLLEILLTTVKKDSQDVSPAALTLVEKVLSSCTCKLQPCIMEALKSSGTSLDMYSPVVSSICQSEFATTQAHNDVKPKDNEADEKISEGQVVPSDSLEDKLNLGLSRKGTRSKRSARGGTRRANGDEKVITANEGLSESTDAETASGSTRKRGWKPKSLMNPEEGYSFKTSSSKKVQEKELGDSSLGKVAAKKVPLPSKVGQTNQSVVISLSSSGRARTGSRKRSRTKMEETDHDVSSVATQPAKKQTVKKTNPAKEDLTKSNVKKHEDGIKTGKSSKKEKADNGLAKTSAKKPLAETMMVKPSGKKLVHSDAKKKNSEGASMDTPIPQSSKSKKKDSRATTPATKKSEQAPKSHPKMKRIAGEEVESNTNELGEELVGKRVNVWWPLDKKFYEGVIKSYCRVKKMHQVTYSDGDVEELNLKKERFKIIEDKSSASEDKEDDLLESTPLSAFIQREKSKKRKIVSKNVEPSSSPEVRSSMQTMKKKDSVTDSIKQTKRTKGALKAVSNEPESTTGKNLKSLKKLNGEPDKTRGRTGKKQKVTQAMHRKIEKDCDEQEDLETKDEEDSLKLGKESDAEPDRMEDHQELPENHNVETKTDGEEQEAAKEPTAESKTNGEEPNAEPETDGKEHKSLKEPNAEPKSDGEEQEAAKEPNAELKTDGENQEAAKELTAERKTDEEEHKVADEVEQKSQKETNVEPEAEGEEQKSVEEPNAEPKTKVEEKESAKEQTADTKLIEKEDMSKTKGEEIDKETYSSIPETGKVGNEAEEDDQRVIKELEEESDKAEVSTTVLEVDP

B1: SWI1, BiFC fusion (protein, UniProt Q9FGN8 1-639)
chain: MSSTMFVKRNPIRETTAGKISSPSSPTLNVAVAHIRAGSYYEIDASILPQRSPENLKSIRVVMVSKITASDVSLRYPSMFSLRSHFDYSRMNRNKPMKKRSGGGLLPVFDESHVMASELAGDLLYRRIAPHELSMNRNSWGFWVSSSSRRNKFPRREVVSQPAYNTRLCRAASPEGKCSSELKSGGMIKWGRRLRVQYQSRHIDTRKNKEGEESSRVKDEVYKEEEMEKEEDDDDGNEIGGTKQEAKEITNGNRKRKLIESSTERLAQKAKVYDQKKETQIVVYKRKSERKFIDRWSVERYKLAERNMLKVMKEKNAVFGNSILRPELRSEARKLIGDTGLLDHLLKHMAGKVAPGGQDRFMRKHNADGAMEYWLESSDLIHIRKEAGVKDPYWTPPPGWKLGDNPSQDPVCAGEIRDIREELASLKRELKKLASKKEEEELVIMTTPNSCVTSQNDNLMTPAKEIYADLLKKKYKIEDQLVIIGETLRKMEEDMGWLKKTVDENYPKKPDSTETPLLLEDSPPIQTLEGEVKVVNKGNQITESPQNREKGRKHDQQERSPLSLISNTGFRICRPVGMFAWPQLPALAAATDTNASSPSHRQAYPSPFPVKPLAAKRPLGLTFPFTIIPEEAPKNLFNV
- binding [1]: binds weakly
- binding [2]: binds
- binding [3]: binds
